PubChem BioAssay AID1508588, Peter MacCallum Cancer Centre – 2020

- Purpose: 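Genome-wide search for knock-downs that heighten vemurafenib action in melanoma cells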 (primary screen)
- Cell system: human WM266.4 melanoma cells (BRAF V600 mutant)
- Reagent: siRNA pool against human genes, 40 nM
- Timing: 96 h from transfection to read-out
- Treatment: vemurafenib 300 nM (about IC25), added 48 h after transfection, for 48 h; comparison arm got DMSO vehicle only
- Detection: 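Ratios to non-targeting siRNA for cell gain, counted as DAPI nuclei after minus before drug and averaged over two replicates, and for absorbance-read medium lactate per cell; both binned into fold-change classes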
- Reading the numbers: cell gain with vemurafenib: higher = more cell gain than with non-targeting siRNA; lactate per cell with vemurafenib: higher = more lactate made per cell
- Rule for the call: 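a knock-down counts as enhancing when its fold-change classes with vehicle and with vemurafenib, taken together, show a stronger drug effect on cell gain or lactate per cell; exact class pairs not stated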
- Meaning of the calls: active = enhances vemurafenib effect; inactive = no enhancement seen
The deposit covers about 18,000 reagents; below is a random part of them. 790 of them (4.4%) were called active. 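Calls rest on a combination of fold-change classes in drug and vehicle arms, not all shown here.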 Reagent sequences are not shown.

The opening 4 records, to show the layout:
gene knocked down | cell gain with vemurafenib | lactate per cell with vemurafenib | Outcome
RAB23 | 0.94 | 1.39 | inactive
SRM | 0.47 | 1.06 | inactive
SLAIN1 | 0.78 | 1.21 | inactive
FRMD8 | 0.33 | 2.2 | inactive

Main list, from the start:
gene knocked down | cell gain with vemurafenib | lactate per cell with vemurafenib | Outcome
RAB23 | 0.94 | 1.39 | inactive
SRM | 0.47 | 1.06 | inactive
SLAIN1 | 0.78 | 1.21 | inactive
FRMD8 | 0.33 | 2.2 | inactive
RLN2 | 0.19 | 2.03 | inactive
SLIT2 | 0.68 | 1.02 | inactive
ACVR1C | 0.21 | 0.85 | inactive
NSD1 | 0.3 | 0.66 | active
FCGBP | 0.72 | 0.52 | active
CACNG7 | 0.55 | 1.19 | inactive
NMNAT1 | 0.22 | 0.99 | inactive
ZNF85 | 0.28 | 1.75 | inactive
CHST15 | 0.56 | 0.43 | inactive
SNHG29 | 0.41 | 0.63 | inactive
PRKDC | 0.26 | 1.29 | inactive
ZNF366 | 0.82 | 0.7 | inactive
DIAPH2 | 0.75 | 0.5 | inactive
SMPD4 | 0.55 | 1.39 | inactive
CT47A11 | 0.83 | 0.98 | inactive
AHRR | 0.78 | 0.72 | inactive
CTBP1-DT | 0.73 | 0.58 | inactive
SMARCC1 | 0.58 | 1.1 | inactive
ARMC6 | 0.39 | 1.7 | inactive
PDX1 | 0.71 | 1.03 | inactive
AKNAD1 | 0.59 | 0.86 | inactive
PTPMT1 | 0.74 | 0.52 | inactive
CT47A10 | 0.95 | 0.39 | inactive
POLR2B | 0.09 | 0.87 | inactive
ZNF148 | 1.04 | 0.75 | inactive
NPRL2 | 0.88 | 0.55 | inactive
HABP4 | 0.68 | 1.54 | inactive
AFG2A | 0.73 | 0.8 | inactive
NXPE4 | 0.62 | 0.9 | inactive
GPR179 | 0.7 | 1.28 | inactive
